Drawing on patent publication US12098154B2, “Inhibitors of cyclin-dependent kinases” (Dana-Farber Cancer Institute, Inc., priority 2015, dated 2024), this text covers IC50 for 1 compound.

For this assay, the system named is Jurkat cells. Description: Jurkat proliferation assay (CellTiter-Glo). The format is cell-based. The conditions noted are these: Homo sapiens, 72 h, read-out: IC50 on Jurkat T-ALL cell proliferation, 72 hrs, CellTiter-Glo. As for the experimental part:
Jurkat cells were seeded at a density of 25,000 cells/well in 96-well plates. Cells were then treated with the indicated compounds in a 10-pt dose escalation format from 1 nM to 10 μM or DMSO control for 72 hours. After 72 hours, the cells were assayed using CellTiter-Glo Luminescent Cell Viability Assay (Promega) to determine cell viability by measuring the amount of ATP present in each sample cell population, which is an indicator of cell metabolic activity. Results were graphed as fraction of the DMSO control at 72 hours. All data points were performed in biological triplicate. Error bars are +/−SD.
Jurkat cells were seeded at a density of 25,000 cells/well in 96-well plates. Cells were then treated with the indicated compounds in a 10-pt dose escalation format from 1 nM to 10 μM or DMSO control for 72 hrs. After 72 hrs, cells were assayed using CellTiter-Glo Luminescent Cell Viability Assay (Promega) to determine cell viability by measuring the amount of ATP present in each sample cell population, which is an indicator of cell metabolic activity. Results are graphed as fraction of the DMSO control at 72 hrs. All data points were performed in biological triplicate. Error bars are +/−SD.
A general note: ATP-based viability assays read luminescence as a measure of living cells.

The structures appear in SMILES notation. Bounds are passed on as bounds.

Regarding `CCc1cnn2c(NCc3ccc[n+]([O-])c3)cc(N3CCCC[C@H]3CCO)nc12` [dinaciclib, reference compound], the IC50 was below 10 nM.
